Results from patent US20080138837A1, “Methods and kits for detecting and measuring ADAMTS13/FXI complexes” (priority 2004, published 2008).
These are yes or no findings as the source states them, for the method shown. Some binding calls cover weakened binding; strength is not graded here.

Chains of the proteins cited; added tags and fusions are not shown. Residues count along the entry.
UniProt P03951, residues 19-625: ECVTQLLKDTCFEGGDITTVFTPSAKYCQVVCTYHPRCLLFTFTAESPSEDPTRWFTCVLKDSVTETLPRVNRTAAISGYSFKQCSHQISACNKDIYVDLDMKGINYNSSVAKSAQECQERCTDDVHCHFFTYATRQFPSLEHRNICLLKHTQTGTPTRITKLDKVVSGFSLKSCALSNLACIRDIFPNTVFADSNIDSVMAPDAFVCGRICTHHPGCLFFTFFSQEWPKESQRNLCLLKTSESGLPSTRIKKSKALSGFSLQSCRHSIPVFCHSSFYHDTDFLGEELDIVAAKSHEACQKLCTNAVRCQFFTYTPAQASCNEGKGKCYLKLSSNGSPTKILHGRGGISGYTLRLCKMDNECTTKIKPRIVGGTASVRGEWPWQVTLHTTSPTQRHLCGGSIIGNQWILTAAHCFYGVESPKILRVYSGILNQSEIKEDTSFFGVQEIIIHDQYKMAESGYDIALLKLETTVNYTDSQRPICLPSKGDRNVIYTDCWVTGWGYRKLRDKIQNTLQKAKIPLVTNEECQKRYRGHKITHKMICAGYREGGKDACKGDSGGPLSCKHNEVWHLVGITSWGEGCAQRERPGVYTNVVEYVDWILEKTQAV

What was measured:
[1] = target: T1, plasma ADAMTS13 (human) (UniProt Q76LX8); assay: complex ELISA: anti-ADAMTS13 capture, anti-FXI-HRP detection
T1 sequence: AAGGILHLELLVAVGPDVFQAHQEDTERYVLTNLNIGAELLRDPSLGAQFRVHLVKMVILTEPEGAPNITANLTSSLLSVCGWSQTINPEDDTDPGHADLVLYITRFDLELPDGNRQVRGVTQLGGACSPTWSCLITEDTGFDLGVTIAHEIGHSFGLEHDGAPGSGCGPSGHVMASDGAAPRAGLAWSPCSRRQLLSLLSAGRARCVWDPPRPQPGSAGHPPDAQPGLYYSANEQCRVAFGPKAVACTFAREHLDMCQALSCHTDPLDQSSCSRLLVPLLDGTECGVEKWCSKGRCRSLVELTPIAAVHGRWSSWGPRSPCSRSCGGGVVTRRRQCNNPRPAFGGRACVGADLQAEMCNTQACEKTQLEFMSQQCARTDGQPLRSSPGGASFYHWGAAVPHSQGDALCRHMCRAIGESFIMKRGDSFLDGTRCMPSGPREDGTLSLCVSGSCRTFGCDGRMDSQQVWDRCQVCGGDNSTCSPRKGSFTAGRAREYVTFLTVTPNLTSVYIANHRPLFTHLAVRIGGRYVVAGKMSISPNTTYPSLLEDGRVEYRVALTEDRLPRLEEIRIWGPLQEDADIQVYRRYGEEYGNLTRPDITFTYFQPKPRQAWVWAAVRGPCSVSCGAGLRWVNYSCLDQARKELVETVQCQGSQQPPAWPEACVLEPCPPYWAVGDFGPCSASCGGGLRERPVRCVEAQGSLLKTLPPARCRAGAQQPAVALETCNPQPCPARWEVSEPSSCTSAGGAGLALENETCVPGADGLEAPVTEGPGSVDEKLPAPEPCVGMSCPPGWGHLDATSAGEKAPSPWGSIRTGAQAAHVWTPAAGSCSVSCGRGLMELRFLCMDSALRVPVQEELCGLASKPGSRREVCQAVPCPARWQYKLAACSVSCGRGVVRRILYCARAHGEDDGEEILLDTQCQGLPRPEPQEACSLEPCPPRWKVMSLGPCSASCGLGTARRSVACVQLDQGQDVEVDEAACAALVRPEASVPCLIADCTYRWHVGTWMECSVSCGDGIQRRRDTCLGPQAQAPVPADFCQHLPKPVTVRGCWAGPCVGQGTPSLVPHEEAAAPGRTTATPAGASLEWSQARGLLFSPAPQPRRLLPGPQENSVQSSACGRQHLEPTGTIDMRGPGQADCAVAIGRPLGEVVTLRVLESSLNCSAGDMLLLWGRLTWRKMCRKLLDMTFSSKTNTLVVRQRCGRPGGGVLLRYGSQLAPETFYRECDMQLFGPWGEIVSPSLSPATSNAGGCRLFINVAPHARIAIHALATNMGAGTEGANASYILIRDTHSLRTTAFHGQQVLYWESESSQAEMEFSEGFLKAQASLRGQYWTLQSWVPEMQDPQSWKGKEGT

[2] = target: T1, plasma ADAMTS13 (human); assay: FXI added to FXI-deficient plasma; complex ELISA: anti-ADAMTS13 capture, anti-FXI-HRP detection

In the case of “Factor XI (from UniProt P03951 19-625) (enzyme)”, the binding [1] is reported as “binds” and the binding [2] is reported as “binds”.
